Experimental data published in article PMC9496679.
No constants are given. Whether binding was seen depends on the method and setting. In cells and extracts the contact can be indirect. Some binding calls cover weakened binding; strength is not graded here. For part of these data: Tags and fused reporters may be left off the sequences shown.

The chains behind the UniProt entries cited, without tags or fusion partners. Where a name states a change or a piece, a line headed by the entry shows the natural chain unless it says otherwise.
UniProt Q99720: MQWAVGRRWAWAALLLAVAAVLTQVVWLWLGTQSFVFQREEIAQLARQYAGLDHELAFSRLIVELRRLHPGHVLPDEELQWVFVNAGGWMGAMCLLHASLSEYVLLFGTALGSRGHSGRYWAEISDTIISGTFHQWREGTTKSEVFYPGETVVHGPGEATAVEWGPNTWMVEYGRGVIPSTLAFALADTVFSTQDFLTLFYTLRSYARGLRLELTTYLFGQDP
UniProt Q15388: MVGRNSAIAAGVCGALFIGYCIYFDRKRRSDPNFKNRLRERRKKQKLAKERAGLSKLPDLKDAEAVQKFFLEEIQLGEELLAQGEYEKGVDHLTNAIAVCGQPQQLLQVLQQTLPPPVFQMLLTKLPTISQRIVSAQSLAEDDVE

Columns and labels:
[1] = biological target: T1, mRFP-tagged VLGR1_CTF (human) (UniProt Q8WXG9); assay: co-IP; RFP-Trap agarose beads; mRFP-tagged bait expressed 24 h in HEK293T; Triton X-100 lysis buffer (50 mM Tris-HCl pH 7.5, 150 mM NaCl, 0.5% Triton X-100); 2 h at 4 °C; endogenous preys detected by western blot
T1 sequence: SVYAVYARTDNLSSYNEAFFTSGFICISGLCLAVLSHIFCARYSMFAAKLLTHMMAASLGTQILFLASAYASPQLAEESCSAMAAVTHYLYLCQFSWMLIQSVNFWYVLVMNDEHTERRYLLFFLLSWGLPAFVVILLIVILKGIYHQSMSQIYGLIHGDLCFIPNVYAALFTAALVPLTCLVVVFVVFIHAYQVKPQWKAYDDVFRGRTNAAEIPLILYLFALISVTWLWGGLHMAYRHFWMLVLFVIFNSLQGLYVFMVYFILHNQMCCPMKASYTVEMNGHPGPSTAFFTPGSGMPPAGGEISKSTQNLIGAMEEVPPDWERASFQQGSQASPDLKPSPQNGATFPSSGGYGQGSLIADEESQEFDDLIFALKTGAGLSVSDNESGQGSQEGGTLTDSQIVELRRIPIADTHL

[2] = biological target: very large G protein-coupled receptor 1 (VLGR1), endogenous (human (endogenous in HEK293T and HeLa)) (UniProt Q8WXG9); assay: proximity ligation; in situ PLA (Duolink In Situ Red, mouse/rabbit) in HEK293T cells, untransfected (endogenous VLGR1) or transfected with VLGR1_CTF-HA; signal at proximity under 40 nm
[3] = biological target: T2, HA-tagged VLGR1_CTF (human) (UniProt Q8WXG9); assay: as above
T2 sequence: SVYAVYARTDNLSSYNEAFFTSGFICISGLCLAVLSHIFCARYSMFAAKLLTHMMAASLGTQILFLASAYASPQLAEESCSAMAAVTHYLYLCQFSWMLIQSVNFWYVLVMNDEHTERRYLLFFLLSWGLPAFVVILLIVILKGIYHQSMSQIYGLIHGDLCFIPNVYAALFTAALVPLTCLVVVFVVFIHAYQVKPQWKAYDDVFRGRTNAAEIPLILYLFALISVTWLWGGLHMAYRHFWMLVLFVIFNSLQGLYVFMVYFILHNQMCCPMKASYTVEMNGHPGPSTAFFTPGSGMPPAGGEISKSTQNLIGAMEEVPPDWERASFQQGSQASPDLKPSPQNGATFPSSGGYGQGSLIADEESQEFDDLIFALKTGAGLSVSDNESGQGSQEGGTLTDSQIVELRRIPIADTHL

[4] = biological target: very large G protein-coupled receptor 1 (VLGR1), endogenous (human (endogenous in HEK293T and HeLa)) (UniProt Q8WXG9); assay: proximity ligation; in situ PLA in HeLa cells (Figure S3)
Myc-tagged S1R = Myc-tagged S1R (UniProt Q99720); assay: co-IP; Myc-Trap agarose beads; S1R-Myc and VLGR1_CTF-mRFP co-expressed in HEK293T; Triton X-100 lysis buffer; 2 h at 4 °C; western blot

“sigma-1 receptor (S1R), endogenous (from UniProt Q99720 1-223)” was tested, and the binding [1] was “binds”, the binding [2] was “binds” and the binding [3] was “binds”. For the same molecule, the binding [4] was “binds”.

In the case of “mitochondrial import receptor subunit TOM20, endogenous (from UniProt Q15388 1-145)”, the binding [1] is reported as “binds”.

B1: mRFP-tagged VLGR1_CTF (domain or fragment, UniProt Q8WXG9-1 5891-6306)
chain: SVYAVYARTDNLSSYNEAFFTSGFICISGLCLAVLSHIFCARYSMFAAKLLTHMMAASLGTQILFLASAYASPQLAEESCSAMAAVTHYLYLCQFSWMLIQSVNFWYVLVMNDEHTERRYLLFFLLSWGLPAFVVILLIVILKGIYHQSMSQIYGLIHGDLCFIPNVYAALFTAALVPLTCLVVVFVVFIHAYQVKPQWKAYDDVFRGRTNAAEIPLILYLFALISVTWLWGGLHMAYRHFWMLVLFVIFNSLQGLYVFMVYFILHNQMCCPMKASYTVEMNGHPGPSTAFFTPGSGMPPAGGEISKSTQNLIGAMEEVPPDWERASFQQGSQASPDLKPSPQNGATFPSSGGYGQGSLIADEESQEFDDLIFALKTGAGLSVSDNESGQGSQEGGTLTDSQIVELRRIPIADTHL
With B1 the binding (Myc-tagged S1R) was “binds”.
